Source: the supplement of paper PMC7666118
This is one part of the list.

Protein sequences, listed by entry. Tags and fused reporters are not part of them. Lines headed by an entry give the natural chain unless they say otherwise; changes in a name come on top.
UniProt P51648: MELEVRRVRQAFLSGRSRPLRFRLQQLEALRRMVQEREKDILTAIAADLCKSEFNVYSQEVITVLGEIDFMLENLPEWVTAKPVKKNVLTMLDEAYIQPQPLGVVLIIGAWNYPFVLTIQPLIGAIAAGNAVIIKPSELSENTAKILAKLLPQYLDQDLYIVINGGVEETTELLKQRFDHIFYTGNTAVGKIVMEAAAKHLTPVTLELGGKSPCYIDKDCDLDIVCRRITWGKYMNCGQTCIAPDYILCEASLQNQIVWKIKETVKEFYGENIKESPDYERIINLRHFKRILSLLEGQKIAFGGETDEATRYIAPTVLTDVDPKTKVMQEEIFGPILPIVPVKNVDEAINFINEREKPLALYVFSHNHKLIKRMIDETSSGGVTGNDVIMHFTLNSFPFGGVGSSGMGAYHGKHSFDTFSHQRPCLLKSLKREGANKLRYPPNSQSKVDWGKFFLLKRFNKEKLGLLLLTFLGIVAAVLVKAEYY
UniProt Q9NP73: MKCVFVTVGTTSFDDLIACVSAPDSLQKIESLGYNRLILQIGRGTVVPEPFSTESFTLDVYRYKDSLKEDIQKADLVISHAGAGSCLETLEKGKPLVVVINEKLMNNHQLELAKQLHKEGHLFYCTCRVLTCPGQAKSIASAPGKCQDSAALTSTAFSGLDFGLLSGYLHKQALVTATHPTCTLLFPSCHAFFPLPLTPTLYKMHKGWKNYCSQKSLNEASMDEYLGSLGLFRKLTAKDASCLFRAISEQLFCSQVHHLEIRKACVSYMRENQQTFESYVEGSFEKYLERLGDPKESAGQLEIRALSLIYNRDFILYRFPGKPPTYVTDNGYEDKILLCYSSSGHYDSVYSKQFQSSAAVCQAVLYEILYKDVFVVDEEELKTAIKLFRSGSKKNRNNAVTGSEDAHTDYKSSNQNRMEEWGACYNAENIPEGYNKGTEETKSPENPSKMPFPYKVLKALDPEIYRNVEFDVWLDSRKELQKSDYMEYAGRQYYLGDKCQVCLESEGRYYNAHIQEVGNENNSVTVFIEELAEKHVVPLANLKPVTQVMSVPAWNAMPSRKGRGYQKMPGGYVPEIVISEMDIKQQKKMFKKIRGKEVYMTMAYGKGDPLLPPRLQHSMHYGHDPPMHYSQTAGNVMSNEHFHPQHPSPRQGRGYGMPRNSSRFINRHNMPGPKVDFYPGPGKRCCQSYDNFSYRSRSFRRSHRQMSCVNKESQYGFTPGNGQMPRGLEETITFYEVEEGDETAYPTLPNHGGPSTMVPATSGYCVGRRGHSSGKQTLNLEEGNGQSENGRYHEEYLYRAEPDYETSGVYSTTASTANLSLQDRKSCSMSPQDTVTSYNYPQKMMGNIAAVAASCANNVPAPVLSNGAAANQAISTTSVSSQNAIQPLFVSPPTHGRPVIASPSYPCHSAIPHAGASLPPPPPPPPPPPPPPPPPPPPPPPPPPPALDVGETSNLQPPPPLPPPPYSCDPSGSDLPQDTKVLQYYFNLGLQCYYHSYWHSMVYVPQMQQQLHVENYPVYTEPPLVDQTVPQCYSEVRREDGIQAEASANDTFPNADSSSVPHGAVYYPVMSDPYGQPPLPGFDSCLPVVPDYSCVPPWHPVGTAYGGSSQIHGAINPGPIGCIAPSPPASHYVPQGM
UniProt P36404: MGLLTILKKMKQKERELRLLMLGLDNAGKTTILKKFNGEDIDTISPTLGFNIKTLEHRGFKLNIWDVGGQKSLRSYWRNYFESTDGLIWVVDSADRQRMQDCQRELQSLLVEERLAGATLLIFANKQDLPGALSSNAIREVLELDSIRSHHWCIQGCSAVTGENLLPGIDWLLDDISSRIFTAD
UniProt Q15067: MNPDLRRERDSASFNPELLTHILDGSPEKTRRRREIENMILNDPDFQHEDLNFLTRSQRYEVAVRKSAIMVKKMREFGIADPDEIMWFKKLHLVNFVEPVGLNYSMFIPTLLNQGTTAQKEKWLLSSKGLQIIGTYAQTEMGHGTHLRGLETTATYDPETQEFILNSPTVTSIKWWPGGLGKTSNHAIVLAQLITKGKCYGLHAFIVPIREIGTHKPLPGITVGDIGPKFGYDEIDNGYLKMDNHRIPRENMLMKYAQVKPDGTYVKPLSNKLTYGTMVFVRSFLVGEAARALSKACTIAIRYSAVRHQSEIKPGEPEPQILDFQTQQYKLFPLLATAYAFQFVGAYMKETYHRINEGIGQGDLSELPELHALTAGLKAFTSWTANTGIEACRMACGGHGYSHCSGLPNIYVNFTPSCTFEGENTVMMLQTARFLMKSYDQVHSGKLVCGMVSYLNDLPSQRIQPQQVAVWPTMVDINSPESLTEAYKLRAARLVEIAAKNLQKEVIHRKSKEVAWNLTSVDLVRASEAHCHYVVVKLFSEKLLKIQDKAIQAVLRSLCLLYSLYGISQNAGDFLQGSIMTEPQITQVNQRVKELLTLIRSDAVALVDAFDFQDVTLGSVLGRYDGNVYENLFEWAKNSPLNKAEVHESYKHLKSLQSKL
UniProt Q9NQW6: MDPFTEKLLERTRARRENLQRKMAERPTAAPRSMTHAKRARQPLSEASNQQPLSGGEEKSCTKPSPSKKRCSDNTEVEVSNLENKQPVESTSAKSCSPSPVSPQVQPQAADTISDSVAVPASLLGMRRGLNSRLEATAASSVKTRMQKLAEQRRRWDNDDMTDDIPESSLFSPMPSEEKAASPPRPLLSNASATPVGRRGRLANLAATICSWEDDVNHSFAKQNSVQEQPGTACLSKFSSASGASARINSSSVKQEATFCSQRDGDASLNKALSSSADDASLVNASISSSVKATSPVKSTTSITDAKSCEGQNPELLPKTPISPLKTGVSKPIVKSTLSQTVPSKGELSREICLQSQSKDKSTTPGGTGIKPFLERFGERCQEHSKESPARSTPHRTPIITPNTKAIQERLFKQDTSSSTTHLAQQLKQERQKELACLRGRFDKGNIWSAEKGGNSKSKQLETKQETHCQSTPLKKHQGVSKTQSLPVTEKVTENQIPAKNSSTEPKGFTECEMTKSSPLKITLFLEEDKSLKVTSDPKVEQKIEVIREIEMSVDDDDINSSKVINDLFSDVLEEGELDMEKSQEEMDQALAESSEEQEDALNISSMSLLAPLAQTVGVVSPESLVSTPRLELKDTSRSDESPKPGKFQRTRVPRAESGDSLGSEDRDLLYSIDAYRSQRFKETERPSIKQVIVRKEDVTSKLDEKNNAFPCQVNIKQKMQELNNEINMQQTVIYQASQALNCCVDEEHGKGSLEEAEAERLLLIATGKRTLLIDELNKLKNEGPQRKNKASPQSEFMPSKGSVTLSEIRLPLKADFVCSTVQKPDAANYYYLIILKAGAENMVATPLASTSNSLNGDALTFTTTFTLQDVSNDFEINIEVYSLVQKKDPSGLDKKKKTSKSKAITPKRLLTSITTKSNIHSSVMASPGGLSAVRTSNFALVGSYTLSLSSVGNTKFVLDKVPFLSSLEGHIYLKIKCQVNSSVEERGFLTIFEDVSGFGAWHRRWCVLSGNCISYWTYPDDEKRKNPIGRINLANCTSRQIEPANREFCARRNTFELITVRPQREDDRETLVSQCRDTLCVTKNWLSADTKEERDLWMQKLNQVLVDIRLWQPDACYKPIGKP
UniProt Q9BUR5: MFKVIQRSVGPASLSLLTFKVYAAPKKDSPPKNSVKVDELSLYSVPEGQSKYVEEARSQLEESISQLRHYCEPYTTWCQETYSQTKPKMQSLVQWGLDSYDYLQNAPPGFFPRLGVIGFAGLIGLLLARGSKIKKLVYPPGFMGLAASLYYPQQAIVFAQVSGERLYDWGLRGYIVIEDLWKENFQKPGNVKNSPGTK
UniProt P05067, whole entry: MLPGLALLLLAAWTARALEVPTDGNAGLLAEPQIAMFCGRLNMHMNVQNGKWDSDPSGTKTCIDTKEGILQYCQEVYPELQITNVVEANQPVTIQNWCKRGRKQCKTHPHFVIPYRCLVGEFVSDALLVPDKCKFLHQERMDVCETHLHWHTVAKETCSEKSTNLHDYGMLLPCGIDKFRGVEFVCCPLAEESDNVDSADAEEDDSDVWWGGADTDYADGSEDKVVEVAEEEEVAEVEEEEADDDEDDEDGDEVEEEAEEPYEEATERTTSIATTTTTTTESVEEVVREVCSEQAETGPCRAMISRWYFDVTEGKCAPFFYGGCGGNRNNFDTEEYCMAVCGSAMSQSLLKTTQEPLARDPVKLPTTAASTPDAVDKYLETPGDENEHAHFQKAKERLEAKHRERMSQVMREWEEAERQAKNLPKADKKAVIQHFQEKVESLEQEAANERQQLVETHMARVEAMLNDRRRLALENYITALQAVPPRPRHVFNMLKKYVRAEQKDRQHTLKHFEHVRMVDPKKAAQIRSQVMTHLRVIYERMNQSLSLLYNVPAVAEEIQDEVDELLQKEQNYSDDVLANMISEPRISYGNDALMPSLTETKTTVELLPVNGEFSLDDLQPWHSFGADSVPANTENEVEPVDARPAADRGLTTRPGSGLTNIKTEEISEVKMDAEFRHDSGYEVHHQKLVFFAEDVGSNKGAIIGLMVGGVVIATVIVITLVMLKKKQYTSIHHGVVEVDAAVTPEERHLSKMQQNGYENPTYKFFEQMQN
UniProt Q9UJX3, whole entry: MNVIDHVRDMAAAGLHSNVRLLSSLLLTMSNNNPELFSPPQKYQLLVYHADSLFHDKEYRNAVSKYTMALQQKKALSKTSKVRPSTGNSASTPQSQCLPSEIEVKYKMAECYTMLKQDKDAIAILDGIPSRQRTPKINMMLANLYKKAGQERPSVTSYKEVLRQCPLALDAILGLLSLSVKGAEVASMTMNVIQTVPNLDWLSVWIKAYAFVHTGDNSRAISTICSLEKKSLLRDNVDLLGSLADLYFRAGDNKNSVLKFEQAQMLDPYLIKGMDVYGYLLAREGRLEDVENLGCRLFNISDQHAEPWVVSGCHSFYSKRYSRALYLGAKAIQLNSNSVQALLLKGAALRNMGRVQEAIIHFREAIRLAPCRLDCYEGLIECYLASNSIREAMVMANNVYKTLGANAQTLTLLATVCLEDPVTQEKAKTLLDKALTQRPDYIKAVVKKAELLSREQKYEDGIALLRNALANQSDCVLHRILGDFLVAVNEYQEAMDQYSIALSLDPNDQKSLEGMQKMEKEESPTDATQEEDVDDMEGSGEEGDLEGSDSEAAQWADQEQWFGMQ
UniProt Q8IZ07: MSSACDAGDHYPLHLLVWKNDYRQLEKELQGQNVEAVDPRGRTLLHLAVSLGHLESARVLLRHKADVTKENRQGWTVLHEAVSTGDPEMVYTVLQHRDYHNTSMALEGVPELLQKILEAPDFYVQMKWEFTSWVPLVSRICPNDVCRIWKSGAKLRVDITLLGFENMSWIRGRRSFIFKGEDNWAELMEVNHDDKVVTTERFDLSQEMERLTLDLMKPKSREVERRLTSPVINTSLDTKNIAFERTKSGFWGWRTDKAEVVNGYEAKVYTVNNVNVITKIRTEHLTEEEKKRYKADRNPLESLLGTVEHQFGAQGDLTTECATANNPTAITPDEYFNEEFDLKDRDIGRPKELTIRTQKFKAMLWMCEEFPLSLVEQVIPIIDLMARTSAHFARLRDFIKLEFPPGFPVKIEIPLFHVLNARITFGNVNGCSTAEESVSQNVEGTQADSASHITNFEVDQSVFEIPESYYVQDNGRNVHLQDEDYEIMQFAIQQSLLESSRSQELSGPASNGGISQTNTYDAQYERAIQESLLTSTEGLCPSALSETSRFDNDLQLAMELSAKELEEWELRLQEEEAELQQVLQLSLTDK
UniProt P13716: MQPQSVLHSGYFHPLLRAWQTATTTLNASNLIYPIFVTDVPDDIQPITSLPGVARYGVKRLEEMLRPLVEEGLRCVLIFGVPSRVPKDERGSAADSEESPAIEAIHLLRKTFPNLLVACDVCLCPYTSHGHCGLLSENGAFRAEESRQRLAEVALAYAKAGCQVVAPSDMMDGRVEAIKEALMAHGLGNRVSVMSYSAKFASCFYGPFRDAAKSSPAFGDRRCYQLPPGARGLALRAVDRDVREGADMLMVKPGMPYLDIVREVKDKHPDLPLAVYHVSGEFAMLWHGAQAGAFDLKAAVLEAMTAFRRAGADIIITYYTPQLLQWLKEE
UniProt Q9BRR6: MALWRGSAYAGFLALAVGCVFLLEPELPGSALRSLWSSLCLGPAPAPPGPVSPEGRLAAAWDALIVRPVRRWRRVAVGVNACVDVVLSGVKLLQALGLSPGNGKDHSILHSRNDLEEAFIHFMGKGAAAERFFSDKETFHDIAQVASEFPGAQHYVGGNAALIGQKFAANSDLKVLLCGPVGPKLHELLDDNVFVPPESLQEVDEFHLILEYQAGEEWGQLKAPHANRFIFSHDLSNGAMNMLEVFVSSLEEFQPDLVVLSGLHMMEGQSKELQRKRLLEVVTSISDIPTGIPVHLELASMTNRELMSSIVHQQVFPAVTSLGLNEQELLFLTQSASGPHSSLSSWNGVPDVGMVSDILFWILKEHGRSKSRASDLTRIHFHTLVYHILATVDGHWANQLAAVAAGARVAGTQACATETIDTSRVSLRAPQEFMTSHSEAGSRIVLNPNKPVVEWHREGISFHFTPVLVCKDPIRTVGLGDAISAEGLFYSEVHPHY

What follows are targets tested with COc1ccc(Cn2ccc3ccc(C(=O)NO)cc32)cc1 (assay: dose-dependent thermal stabilisation call (2D-TPP, DLPTP, 10% FDR) (binary (1 = stabilised)); higher = stabilised by the compound). Conditions: system: HL-60 intact cells; concentration range 0.04-10 µM.

Row | Target | dose-dependent thermal stabilisation call
1 | ANKFY1 (UniProt Q9P2R3) | inactive: 0
2 | ANKRD22 (UniProt Q5VYY1) | inactive: 0
3 | ALDH3A2 (UniProt P51648) | inactive: 0
4 | ALG6 (UniProt Q9Y672) | inactive: 0
5 | ALG13 (UniProt Q9NP73) | inactive: 0
6 | AFF1 (UniProt P51825) | inactive: 0
7 | ARL2 (UniProt P36404) | inactive: 0
8 | ANAPC10 (UniProt Q9UM13) | inactive: 0
9 | ALG9 (UniProt Q9H6U8) | inactive: 0
10 | ACOX1 (UniProt Q15067) | inactive: 0
11 | ANLN (UniProt Q9NQW6) | inactive: 0
12 | AGL (UniProt P35573) | inactive: 0
13 | APOO (UniProt Q9BUR5) | inactive: 0
14 | AGPAT2 (UniProt O15120) | inactive: 0
15 | ALKBH3 (UniProt Q96Q83) | inactive: 0
16 | ADNP (UniProt Q9H2P0) | inactive: 0
17 | ANKRD50 (UniProt Q9ULJ7) | inactive: 0
18 | ANKRD27 (UniProt Q96NW4) | inactive: 0
19 | APP (UniProt P05067) | inactive: 0

Taken from the listing for reference:
Row | Target | dose-dependent thermal stabilisation call
9 | ALG9 (UniProt Q9H6U8) | inactive: 0
10 | ACOX1 (UniProt Q15067) | inactive: 0
11 | ANLN (UniProt Q9NQW6) | inactive: 0
12 | AGL (UniProt P35573) | inactive: 0
13 | APOO (UniProt Q9BUR5) | inactive: 0
14 | AGPAT2 (UniProt O15120) | inactive: 0
15 | ALKBH3 (UniProt Q96Q83) | inactive: 0
16 | ADNP (UniProt Q9H2P0) | inactive: 0
17 | ANKRD50 (UniProt Q9ULJ7) | inactive: 0
18 | ANKRD27 (UniProt Q96NW4) | inactive: 0

The list goes on.

Row | Target | dose-dependent thermal stabilisation call
20 | AP2B1 (UniProt P63010) | inactive: 0
21 | ACTR3B (UniProt Q9P1U1) | inactive: 0
22 | AHNAK (UniProt Q09666) | inactive: 0
23 | ANAPC7 (UniProt Q9UJX3) | inactive: 0
24 | ACO2 (UniProt Q99798) | inactive: 0
25 | ANKRD13A (UniProt Q8IZ07) | inactive: 0
26 | ARHGAP9 (UniProt Q9BRR9) | inactive: 0
27 | APOL2 (UniProt Q9BQE5) | inactive: 0
28 | ADI1 (UniProt Q9BV57) | inactive: 0
29 | ANKHD1-EIF4EBP3 | inactive: 0
30 | ALAD (UniProt P13716) | inactive: 0
31 | AHCYL1 (UniProt O43865) | inactive: 0
32 | ANXA6 (UniProt P08133) | inactive: 0
33 | ALG10 (UniProt Q5BKT4) | inactive: 0
34 | ADPGK (UniProt Q9BRR6) | inactive: 0
35 | ACSM3 (UniProt Q53FZ2) | inactive: 0
36 | AP1G2 (UniProt O75843) | inactive: 0
37 | ACTB (UniProt P60709) | inactive: 0
38 | AKAP8 (UniProt O43823) | inactive: 0
